Reference: article PMC3084833
No constants are given. Whether binding was seen depends on the method and setting. Binding seen in cells or lysates may run through a third protein. Some results given as binding are weak or reduced against the parent protein; the word gives no strength. For part of these data: Tags and fused reporters may be left off the sequences shown.

By UniProt entry, the sequences of proteins in these tests, tags left out. Where a name states a change or a piece, a line headed by the entry shows the natural chain unless it says otherwise. Chains listed by the source or under a name are the forms on record and can include a tag or linker.
calcium channel, voltage-dependent, L-type, α1D subunit CaV1.3 (human, untagged) (Q01668-2, form named): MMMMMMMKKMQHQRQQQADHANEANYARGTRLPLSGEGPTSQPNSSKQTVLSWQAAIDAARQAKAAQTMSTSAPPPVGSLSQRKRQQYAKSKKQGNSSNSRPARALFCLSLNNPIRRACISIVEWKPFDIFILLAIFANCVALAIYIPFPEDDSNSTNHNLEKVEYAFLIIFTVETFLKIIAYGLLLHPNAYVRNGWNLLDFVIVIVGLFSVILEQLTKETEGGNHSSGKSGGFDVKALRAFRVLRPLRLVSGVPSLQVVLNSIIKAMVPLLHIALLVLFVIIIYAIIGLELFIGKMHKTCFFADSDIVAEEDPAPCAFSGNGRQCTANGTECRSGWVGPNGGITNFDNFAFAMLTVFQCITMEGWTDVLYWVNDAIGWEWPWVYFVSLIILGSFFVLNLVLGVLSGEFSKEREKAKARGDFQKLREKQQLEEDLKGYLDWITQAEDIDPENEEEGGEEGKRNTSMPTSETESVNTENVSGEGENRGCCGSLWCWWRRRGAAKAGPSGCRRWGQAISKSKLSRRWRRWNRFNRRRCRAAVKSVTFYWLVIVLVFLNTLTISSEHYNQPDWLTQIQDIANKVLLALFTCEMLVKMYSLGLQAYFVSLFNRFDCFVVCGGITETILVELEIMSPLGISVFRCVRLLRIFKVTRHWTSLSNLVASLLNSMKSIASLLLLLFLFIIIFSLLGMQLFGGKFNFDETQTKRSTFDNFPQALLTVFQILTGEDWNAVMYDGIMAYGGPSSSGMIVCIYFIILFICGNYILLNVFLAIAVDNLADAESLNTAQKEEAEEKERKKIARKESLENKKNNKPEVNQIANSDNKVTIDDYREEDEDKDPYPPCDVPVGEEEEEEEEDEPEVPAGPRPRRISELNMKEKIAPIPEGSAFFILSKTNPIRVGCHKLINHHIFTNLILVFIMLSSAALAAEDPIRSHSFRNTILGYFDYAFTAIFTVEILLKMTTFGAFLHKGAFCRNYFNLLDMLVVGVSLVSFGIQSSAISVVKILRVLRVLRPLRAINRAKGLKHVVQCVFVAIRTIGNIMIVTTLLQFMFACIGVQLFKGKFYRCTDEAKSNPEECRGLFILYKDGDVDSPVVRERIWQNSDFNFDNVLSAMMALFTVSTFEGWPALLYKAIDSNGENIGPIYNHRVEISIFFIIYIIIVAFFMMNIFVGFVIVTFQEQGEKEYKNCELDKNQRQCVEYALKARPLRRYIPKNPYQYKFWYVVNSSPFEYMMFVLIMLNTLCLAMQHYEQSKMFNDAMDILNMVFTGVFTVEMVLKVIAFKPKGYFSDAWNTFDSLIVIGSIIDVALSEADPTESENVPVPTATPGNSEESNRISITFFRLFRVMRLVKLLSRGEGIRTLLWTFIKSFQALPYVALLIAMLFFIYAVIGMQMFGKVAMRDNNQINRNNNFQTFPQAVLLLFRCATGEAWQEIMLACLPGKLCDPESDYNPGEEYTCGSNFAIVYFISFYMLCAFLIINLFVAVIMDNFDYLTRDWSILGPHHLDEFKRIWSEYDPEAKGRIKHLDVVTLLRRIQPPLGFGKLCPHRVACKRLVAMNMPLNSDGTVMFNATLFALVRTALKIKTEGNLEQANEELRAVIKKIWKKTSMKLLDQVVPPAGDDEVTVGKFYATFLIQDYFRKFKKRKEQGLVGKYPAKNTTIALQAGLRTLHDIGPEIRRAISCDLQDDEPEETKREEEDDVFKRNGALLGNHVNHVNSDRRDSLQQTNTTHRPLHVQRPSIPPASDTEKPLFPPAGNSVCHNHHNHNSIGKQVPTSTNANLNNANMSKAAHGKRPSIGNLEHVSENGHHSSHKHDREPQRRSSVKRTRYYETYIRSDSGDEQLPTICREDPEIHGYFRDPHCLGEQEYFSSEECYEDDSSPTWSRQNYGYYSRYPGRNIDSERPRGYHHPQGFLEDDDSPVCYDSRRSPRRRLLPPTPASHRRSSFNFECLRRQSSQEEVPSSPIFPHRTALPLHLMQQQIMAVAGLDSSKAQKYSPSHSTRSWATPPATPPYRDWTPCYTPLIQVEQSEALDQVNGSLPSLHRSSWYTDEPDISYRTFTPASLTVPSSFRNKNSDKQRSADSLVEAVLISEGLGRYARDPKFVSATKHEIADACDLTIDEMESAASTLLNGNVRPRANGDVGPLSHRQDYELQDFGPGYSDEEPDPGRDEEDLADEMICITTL

Columns and labels:
[1] = target: calcium channel, voltage-dependent, β3-subunit (rat, untagged, β3-pCMV) (Rattus norvegicus) (UniProt P54287); assay: co-IP; CHO cells co-transfected with CaV1.3 (GFP fusion or untagged) and β3-subunits; lysate in 1% Nonidet-P40, 0.5% deoxycholate, 150 mM NaCl; IP with anti-β3 antibody, blot for CaV1.3, or IP of CaV1.3, blot for β3
[2] = target: T1, bestrophin-1-GFP fusion construct (hBest-pEGFP-N1) (human) (UniProt O76090); assay: co-IP; CHO, COS-7 and HEK-293 cells co-transfected with bestrophin-1-GFP and β3-subunits, or with β3-subunits and GFP; IP with anti-GFP antibodies, blots anti-β3 and anti-GFP
T1 sequence: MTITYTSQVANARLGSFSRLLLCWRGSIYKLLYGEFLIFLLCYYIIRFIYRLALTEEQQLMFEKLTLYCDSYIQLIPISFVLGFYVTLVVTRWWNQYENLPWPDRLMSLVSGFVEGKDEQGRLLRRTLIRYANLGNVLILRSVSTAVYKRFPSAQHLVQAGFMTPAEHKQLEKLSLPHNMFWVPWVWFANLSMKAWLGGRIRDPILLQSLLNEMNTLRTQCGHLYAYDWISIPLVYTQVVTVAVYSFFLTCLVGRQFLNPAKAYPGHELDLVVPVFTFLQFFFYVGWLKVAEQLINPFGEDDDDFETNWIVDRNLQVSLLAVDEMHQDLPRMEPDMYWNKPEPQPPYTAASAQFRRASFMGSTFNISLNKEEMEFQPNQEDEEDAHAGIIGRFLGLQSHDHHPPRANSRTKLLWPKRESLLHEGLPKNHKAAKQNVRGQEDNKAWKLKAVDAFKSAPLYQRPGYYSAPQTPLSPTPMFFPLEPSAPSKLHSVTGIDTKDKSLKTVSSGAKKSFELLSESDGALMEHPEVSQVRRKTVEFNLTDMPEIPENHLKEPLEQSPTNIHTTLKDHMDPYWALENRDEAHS

[3] = target: calcium channel, voltage-dependent, L-type, α1D subunit CaV1.3 (human, untagged) (human) (UniProt Q01668); assay: co-IP; CHO cells co-transfected with CaV1.3 (GFP fusion or untagged) and β3-subunits; lysate in 1% Nonidet-P40, 0.5% deoxycholate, 150 mM NaCl; IP with anti-β3 antibody, blot for CaV1.3, or IP of CaV1.3, blot for β3

“CaV1.3-GFP fusion construct (human α1D subunit CaV1.3, eGFP-tagged) (from UniProt Q01668-2 1-2181)” was tested, and the binding [1] was “binds”.
“calcium channel, voltage-dependent, β3-subunit (rat, untagged, β3-pCMV) (from UniProt P54287 1-484)” was tested, and the binding [2] was “binds” and the binding [3] was “binds”.
